From US20110071141A1, “Pesticidial Condensed-Ring Aryl Compounds” (Bayer CropScience AG, priority 2008, published 2011)
Some of these results come from one statement about several compounds together.

Experiments:
Type in all cases: in vivo
Lucilia cuprina larvae = details: application rate 100 ppm; larvae in minced horse meat; 2 days
Method: (§1) Solvent: dimethyl sulfoxide
Approximately 20-30 (Lucilia cuprina larvae) are transferred into a test tube containing 1 cm^3 of minced horse meat and 0.5 ml aqueous dilution of test compound. After 2 days, mortality in % is determined.

Musca domestica = details: application rate 100 ppm; adults; 2 days
Method: as §1
Prior to the assay, a piece or kitchen sponge is soaked with a mixture of sugar and compound solution and placed into a container. 10 adults (Musca domestica) are placed into the container and closed with a perforated lid. After 2 days, mortality in % is determined. 100% means that all the flies have been killed; 0% means that none of the flies have been killed.

Boophilus microplus = details: application rate 20 μg/animal injected; adult engorged female ticks; 7 days
Method: as §1
Five adult engorged female ticks (Boophilus microplus) are injected with compound solution into the abdomen. Ticks are transferred into replica plates and incubated in a climate chamber for a period of time. Egg deposition of fertile eggs is monitored. After 7 days, mortality in % is determined. 100% means that all eggs are infertile; 0% means that all eggs are fertile.

Ctenocephalides felis = details: application rate 100 ppm in cattle blood; adult unfed fleas; 2 days
Method: as §1
Approximately 10 to 15 adult unfed (Ctenocepahlides felis) are placed in flea chambers. […] The blood chamber is heated to 37° C. whereas the flea chamber is kept at room temperature. After 2 days, mortality in % is determined. 100% means that all the fleas have been killed; 0% means that none of the fleas have been killed.

Tetranychus urticae = experiment: Test on Tetranychus urticae (spray test); details: active compound concentration 100 ppm; adult mites on pinto bean sprayed; 7 days
Method: The test solution has been prepared as described in biological test example 1. 50 to 100 adult Tetranychus urticae were placed on pinto bean leaves at true leaf stage having two main leaves that had been grown in a pot (6 cm diameter). After 1 day, a generous amount of the test solution which has been diluted with water to the predetermined concentration was sprayed thereto using a spray gun.
After keeping the pot in a green house for 7 days, acaricidal ratio was calculated. 100% means that all the mites have been killed; 0% means that none of the mites have been killed.

## O=C1OCc2cc(C3=NOC(c4cc(C(F)(F)F)cc(C(F)(F)F)c4)(C(F)(F)F)C3)ccc21 (stereo not shown) [Example 1-10]
Lucilia cuprina larvae
  activity (mortality in %): ≥ 80%
Musca domestica
  activity (mortality in %): ≥ 80%
Boophilus microplus
  activity (mortality in %; 100% means all eggs infertile): ≥ 80%
Ctenocephalides felis
  activity (mortality in %): ≥ 80%

## CCN1Cc2cc(C3=NOC(c4cc(Cl)cc(Cl)c4)(C(F)(F)F)C3)ccc2C1=O (stereo not shown) [Example 1-54]
Lucilia cuprina larvae
  activity (mortality in %): ≥ 80%
Musca domestica
  activity (mortality in %): ≥ 80%
Boophilus microplus
  activity (mortality in %; 100% means all eggs infertile): ≥ 80%
Ctenocephalides felis
  activity (mortality in %): ≥ 80%

## O=C1c2ccc(C3=NOC(c4cc(Cl)cc(Cl)c4)(C(F)(F)F)C3)cc2CN1CC(F)(F)F (stereo not shown) [Example 1-56]
Lucilia cuprina larvae
  activity (mortality in %): ≥ 80%
Musca domestica
  activity (mortality in %): ≥ 80%
Boophilus microplus
  activity (mortality in %; 100% means all eggs infertile): ≥ 80%
Ctenocephalides felis
  activity (mortality in %): ≥ 80%

## CC(C)N1Cc2cc(C3=NOC(c4cc(Cl)cc(Cl)c4)(C(F)(F)F)C3)ccc2C1=O (stereo not shown) [Example 1-61]
Lucilia cuprina larvae
  activity (mortality in %): ≥ 80%
Musca domestica
  activity (mortality in %): ≥ 80%
Boophilus microplus
  activity (mortality in %; 100% means all eggs infertile): ≥ 80%
Ctenocephalides felis
  activity (mortality in %): ≥ 80%

## CC(C)CN1Cc2cc(C3=NOC(c4cc(Cl)cc(Cl)c4)(C(F)(F)F)C3)ccc2C1=O (stereo not shown) [Example 1-64]
Lucilia cuprina larvae
  activity (mortality in %): ≥ 80%
Musca domestica
  activity (mortality in %): ≥ 80%
Boophilus microplus
  activity (mortality in %; 100% means all eggs infertile): ≥ 80%
Ctenocephalides felis
  activity (mortality in %): ≥ 80%

## C=CCN1Cc2cc(C3=NOC(c4cc(Cl)cc(Cl)c4)(C(F)(F)F)C3)ccc2C1=O (stereo not shown) [Example 1-67]
Lucilia cuprina larvae
  activity (mortality in %): ≥ 80%
Boophilus microplus
  activity (mortality in %; 100% means all eggs infertile): ≥ 80%
Ctenocephalides felis
  activity (mortality in %): ≥ 80%

## COCCN1Cc2cc(C3=NOC(c4cc(Cl)cc(Cl)c4)(C(F)(F)F)C3)ccc2C1=O (stereo not shown) [Example 1-69]
Lucilia cuprina larvae
  activity (mortality in %): ≥ 80%
Boophilus microplus
  activity (mortality in %; 100% means all eggs infertile): ≥ 80%
Ctenocephalides felis
  activity (mortality in %): ≥ 80%

## O=C1c2ccc(C3=NOC(c4cc(Cl)cc(Cl)c4)(C(F)(F)F)C3)cc2CN1Cc1ccccc1 (stereo not shown) [Example 1-79]
Lucilia cuprina larvae
  activity (mortality in %): ≥ 80%
Boophilus microplus
  activity (mortality in %; 100% means all eggs infertile): ≥ 80%

## O=C1c2ccc(C3=NOC(c4cc(Cl)cc(Cl)c4)(C(F)(F)F)C3)cc2CN1Cc1ncccn1 (stereo not shown) [Example 1-80]
Lucilia cuprina larvae
  activity (mortality in %): ≥ 80%
Musca domestica
  activity (mortality in %): ≥ 80%
Boophilus microplus
  activity (mortality in %; 100% means all eggs infertile): ≥ 80%
Ctenocephalides felis
  activity (mortality in %): ≥ 80%

## O=C1OCc2ccc(C3=NOC(c4cc(Cl)cc(Cl)c4)(C(F)(F)F)C3)cc21 (stereo not shown) [Example 1-116]
Lucilia cuprina larvae
  activity (mortality in %): ≥ 80%
Boophilus microplus
  activity (mortality in %; 100% means all eggs infertile): ≥ 80%

## O=C1Cc2cc(C3=NOC(c4cc(Cl)cc(Cl)c4)(C(F)(F)F)C3)ccc2N1 (stereo not shown) [Example 1-121]
Lucilia cuprina larvae
  activity (mortality in %): ≥ 80%
Boophilus microplus
  activity (mortality in %; 100% means all eggs infertile): ≥ 80%
Ctenocephalides felis
  activity (mortality in %): ≥ 80%

## O=C1NNCc2cc(C3=NOC(c4cc(Cl)cc(Cl)c4)(C(F)(F)F)C3)ccc21 (stereo not shown) [Example 1-125]
Lucilia cuprina larvae
  activity (mortality in %): ≥ 80%
Musca domestica
  activity (mortality in %): ≥ 80%
Boophilus microplus
  activity (mortality in %; 100% means all eggs infertile): ≥ 80%
Ctenocephalides felis
  activity (mortality in %): ≥ 80%

## CN1Cc2cc(C3=NOC(c4cc(Cl)cc(Cl)c4)(C(F)(F)F)C3)ccc2C(=O)N1 (stereo not shown) [Example 1-126]
Lucilia cuprina larvae
  activity (mortality in %): ≥ 80%
Musca domestica
  activity (mortality in %): ≥ 80%
Boophilus microplus
  activity (mortality in %; 100% means all eggs infertile): ≥ 80%
Ctenocephalides felis
  activity (mortality in %): ≥ 80%

## CN1CCc2cc(C3=NOC(c4cc(Cl)cc(Cl)c4)(C(F)(F)F)C3)ccc21 (stereo not shown) [Example 1-142]
Lucilia cuprina larvae
  activity (mortality in %): ≥ 80%
Musca domestica
  activity (mortality in %): ≥ 80%
Boophilus microplus
  activity (mortality in %; 100% means all eggs infertile): ≥ 80%

## FC(F)(F)C1(c2cc(Cl)cc(Cl)c2)CC(c2ccc3c(c2)CN(Cc2ccccn2)C3)=NO1 (stereo not shown) [Example 1-150]
Lucilia cuprina larvae
  activity (mortality in %): ≥ 80%
Boophilus microplus
  activity (mortality in %; 100% means all eggs infertile): ≥ 80%
Ctenocephalides felis
  activity (mortality in %): ≥ 80%

## FC(F)(F)C1(c2cc(Cl)cc(Cl)c2)CC(c2ccc3[nH]ccc3c2)=NO1 (stereo not shown) [Example 1-155]
Lucilia cuprina larvae
  activity (mortality in %): ≥ 80%

## FC(F)(F)C1(c2cc(Cl)cc(Cl)c2)CC(c2ccc3ncccc3c2)=NO1 (stereo not shown) [Example 1-164]
Lucilia cuprina larvae
  activity (mortality in %): ≥ 80%
Boophilus microplus
  activity (mortality in %; 100% means all eggs infertile): ≥ 80%
Ctenocephalides felis
  activity (mortality in %): ≥ 80%

## FC(F)(F)C1(c2cc(Cl)cc(Cl)c2)CC(c2ccc3c(c2)CCCN3)=NO1 (stereo not shown) [Example 1-169]
Boophilus microplus
  activity (mortality in %; 100% means all eggs infertile): ≥ 80%

## FC(F)(F)C1(c2cc(Cl)cc(Cl)c2)CC(c2ccc3nccnc3c2)=NO1 (stereo not shown) [Example 1-175]
Boophilus microplus
  activity (mortality in %; 100% means all eggs infertile): ≥ 80%

## ON=C1CCc2cc(C3=NOC(c4cc(Cl)cc(Cl)c4)(C(F)(F)F)C3)ccc21 (stereo not shown) [Example 1-211]
Lucilia cuprina larvae
  activity (mortality in %): ≥ 80%
Musca domestica
  activity (mortality in %): ≥ 80%
Boophilus microplus
  activity (mortality in %; 100% means all eggs infertile): ≥ 80%

## CON=C1CCc2cc(C3=NOC(c4cc(Cl)cc(Cl)c4)(C(F)(F)F)C3)ccc21 (stereo not shown) [Example 1-213]
Lucilia cuprina larvae
  activity (mortality in %): ≥ 80%
Musca domestica
  activity (mortality in %): ≥ 80%
Boophilus microplus
  activity (mortality in %; 100% means all eggs infertile): ≥ 80%

## FC(F)(F)C1(c2cc(Cl)cc(Cl)c2)CC(c2ccc3c(c2)CCC3=NOCc2ccccn2)=NO1 (stereo not shown) [Example 1-241]
Lucilia cuprina larvae
  activity (mortality in %): ≥ 80%
Boophilus microplus
  activity (mortality in %; 100% means all eggs infertile): ≥ 80%

## O=C1c2ccc(C3=NOC(c4cc(Cl)cc(Cl)c4)(C(F)(F)F)C3)cc2CN1c1cccc(C(F)(F)F)c1 (stereo not shown) [Example 1-270]
Lucilia cuprina larvae
  activity (mortality in %): ≥ 80%
Boophilus microplus
  activity (mortality in %; 100% means all eggs infertile): ≥ 80%

## O=C1c2ccc(C3=NOC(c4cc(Cl)cc(Cl)c4)(C(F)(F)F)C3)cc2CN1CCF (stereo not shown) [Example 1-271]
Lucilia cuprina larvae
  activity (mortality in %): ≥ 80%
Musca domestica
  activity (mortality in %): ≥ 80%
Boophilus microplus
  activity (mortality in %; 100% means all eggs infertile): ≥ 80%
Ctenocephalides felis
  activity (mortality in %): ≥ 80%

## CC(=O)OC1CCc2cc(C3=NOC(c4cc(Cl)c(Cl)c(Cl)c4)(C(F)(F)F)C3)ccc21 (stereo not shown) [Example 3-70]
Lucilia cuprina larvae
  activity (mortality in %): ≥ 80%
Tetranychus urticae
  mortality (acaricidal ratio): ≥ 98%
Boophilus microplus
  activity (mortality in %; 100% means all eggs infertile): ≥ 80%

## OC1CCc2cc(C3=NCC(c4cc(Cl)cc(Cl)c4)(C(F)(F)F)C3)ccc21 (stereo not shown) [Example 3-137]
Boophilus microplus
  activity (mortality in %; 100% means all eggs infertile): ≥ 80%

## CC(=O)OC1CCc2cc(C3=NCC(c4cc(Cl)cc(Cl)c4)(C(F)(F)F)C3)ccc21 (stereo not shown) [Example 3-138]
Boophilus microplus
  activity (mortality in %; 100% means all eggs infertile): ≥ 80%

## O=C(CCl)NC1CCCc2cc(C3=NOC(c4cc(Cl)cc(Cl)c4)(C(F)(F)F)C3)ccc21 (stereo not shown) [Example 3-216]
Lucilia cuprina larvae
  activity (mortality in %): ≥ 80%
Tetranychus urticae
  mortality (acaricidal ratio): ≥ 98%
Boophilus microplus
  activity (mortality in %; 100% means all eggs infertile): ≥ 80%
Ctenocephalides felis
  activity (mortality in %): ≥ 80%

## O=C(NC1CCCc2cc(C3=NOC(c4cc(Cl)cc(Cl)c4)(C(F)(F)F)C3)ccc21)c1ccccc1 (stereo not shown) [Example 3-219]
Lucilia cuprina larvae
  activity (mortality in %): ≥ 80%
Tetranychus urticae
  mortality (acaricidal ratio): ≥ 98%
Boophilus microplus
  activity (mortality in %; 100% means all eggs infertile): ≥ 80%

## CS(=O)(=O)NC1CCCc2cc(C3=NOC(c4cc(Cl)cc(Cl)c4)(C(F)(F)F)C3)ccc21 (stereo not shown) [Example 3-241]
Lucilia cuprina larvae
  activity (mortality in %): ≥ 80%
Boophilus microplus
  activity (mortality in %; 100% means all eggs infertile): ≥ 80%
Ctenocephalides felis
  activity (mortality in %): ≥ 80%

## CC(C)(C)OC(=O)NC1CCCc2cc(C3=NCC(c4cc(Cl)cc(Cl)c4)(C(F)(F)F)C3)ccc21 (stereo not shown) [Example 3-344]
Lucilia cuprina larvae
  activity (mortality in %): ≥ 80%
Boophilus microplus
  activity (mortality in %; 100% means all eggs infertile): ≥ 80%

## O=C(NC1CC1)N1CCCc2cc(C3=NOC(c4cc(Cl)cc(Cl)c4)(C(F)(F)F)C3)ccc21 (stereo not shown) [Example 3-659]
Lucilia cuprina larvae
  activity (mortality in %): ≥ 80%
Boophilus microplus
  activity (mortality in %; 100% means all eggs infertile): ≥ 80%

## O=C(NCC1CC1)N1CCCc2cc(C3=NOC(c4cc(Cl)cc(Cl)c4)(C(F)(F)F)C3)ccc21 (stereo not shown) [Example 3-660]
Lucilia cuprina larvae
  activity (mortality in %): ≥ 80%
Boophilus microplus
  activity (mortality in %; 100% means all eggs infertile): ≥ 80%

## O=C(NCC(F)(F)F)N1CCCc2cc(C3=NOC(c4cc(Cl)cc(Cl)c4)(C(F)(F)F)C3)ccc21 (stereo not shown) [Example 3-661A]
Lucilia cuprina larvae
  activity (mortality in %): ≥ 80%
Boophilus microplus
  activity (mortality in %; 100% means all eggs infertile): ≥ 80%

## C=CCNC(=O)N1CCCc2cc(C3=NOC(c4cc(Cl)cc(Cl)c4)(C(F)(F)F)C3)ccc21 (stereo not shown) [Example 3-663]
Lucilia cuprina larvae
  activity (mortality in %): ≥ 80%
Boophilus microplus
  activity (mortality in %; 100% means all eggs infertile): ≥ 80%
Ctenocephalides felis
  activity (mortality in %): ≥ 80%

## C#CCNC(=O)N1CCCc2cc(C3=NOC(c4cc(Cl)cc(Cl)c4)(C(F)(F)F)C3)ccc21 (stereo not shown) [Example 3-664]
Lucilia cuprina larvae
  activity (mortality in %): ≥ 80%
Boophilus microplus
  activity (mortality in %; 100% means all eggs infertile): ≥ 80%

## O=C(NC1CCC1)N1CCCc2cc(C3=NOC(c4cc(Cl)cc(Cl)c4)(C(F)(F)F)C3)ccc21 (stereo not shown) [Example 3-828]
Lucilia cuprina larvae
  activity (mortality in %): ≥ 80%
Boophilus microplus
  activity (mortality in %; 100% means all eggs infertile): ≥ 80%

## NC1CCc2cc(C3=NOC(c4cc(C(F)(F)F)cc(C(F)(F)F)c4)(C(F)(F)F)C3)ccc21 (stereo not shown) [Example 3-831]
Lucilia cuprina larvae
  activity (mortality in %): ≥ 80%
Ctenocephalides felis
  activity (mortality in %): ≥ 80%
